# In PMC8418605:
# Sequences of proteins named here, by UniProt entry; tags and fusion partners are left off.
# UniProt Q92769: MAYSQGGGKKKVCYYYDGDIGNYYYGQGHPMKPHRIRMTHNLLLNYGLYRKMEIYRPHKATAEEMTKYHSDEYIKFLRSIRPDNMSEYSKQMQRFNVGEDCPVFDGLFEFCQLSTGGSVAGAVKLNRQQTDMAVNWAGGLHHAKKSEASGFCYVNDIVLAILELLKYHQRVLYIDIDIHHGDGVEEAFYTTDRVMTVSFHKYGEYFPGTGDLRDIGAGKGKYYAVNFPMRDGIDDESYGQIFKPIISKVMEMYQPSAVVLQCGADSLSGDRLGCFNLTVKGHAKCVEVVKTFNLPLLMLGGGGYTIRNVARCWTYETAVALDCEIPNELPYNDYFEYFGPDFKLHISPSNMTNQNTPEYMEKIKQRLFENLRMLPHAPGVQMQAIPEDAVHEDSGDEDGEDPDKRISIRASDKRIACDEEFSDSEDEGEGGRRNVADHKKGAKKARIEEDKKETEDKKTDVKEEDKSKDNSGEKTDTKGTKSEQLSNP
# UniProt Q13547: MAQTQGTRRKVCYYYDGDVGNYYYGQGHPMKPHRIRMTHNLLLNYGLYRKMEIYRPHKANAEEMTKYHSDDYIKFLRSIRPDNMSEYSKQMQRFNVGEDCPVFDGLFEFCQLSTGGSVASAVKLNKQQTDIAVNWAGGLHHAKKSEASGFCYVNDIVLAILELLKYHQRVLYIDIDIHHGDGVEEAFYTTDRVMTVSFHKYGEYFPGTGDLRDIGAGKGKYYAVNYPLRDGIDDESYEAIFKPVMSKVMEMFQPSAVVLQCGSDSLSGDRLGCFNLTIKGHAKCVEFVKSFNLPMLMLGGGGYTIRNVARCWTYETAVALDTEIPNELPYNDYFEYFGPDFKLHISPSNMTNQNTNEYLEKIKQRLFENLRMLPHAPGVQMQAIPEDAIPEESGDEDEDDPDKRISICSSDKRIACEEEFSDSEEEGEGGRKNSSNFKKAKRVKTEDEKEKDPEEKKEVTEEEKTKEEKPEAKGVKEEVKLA
# UniProt P42229: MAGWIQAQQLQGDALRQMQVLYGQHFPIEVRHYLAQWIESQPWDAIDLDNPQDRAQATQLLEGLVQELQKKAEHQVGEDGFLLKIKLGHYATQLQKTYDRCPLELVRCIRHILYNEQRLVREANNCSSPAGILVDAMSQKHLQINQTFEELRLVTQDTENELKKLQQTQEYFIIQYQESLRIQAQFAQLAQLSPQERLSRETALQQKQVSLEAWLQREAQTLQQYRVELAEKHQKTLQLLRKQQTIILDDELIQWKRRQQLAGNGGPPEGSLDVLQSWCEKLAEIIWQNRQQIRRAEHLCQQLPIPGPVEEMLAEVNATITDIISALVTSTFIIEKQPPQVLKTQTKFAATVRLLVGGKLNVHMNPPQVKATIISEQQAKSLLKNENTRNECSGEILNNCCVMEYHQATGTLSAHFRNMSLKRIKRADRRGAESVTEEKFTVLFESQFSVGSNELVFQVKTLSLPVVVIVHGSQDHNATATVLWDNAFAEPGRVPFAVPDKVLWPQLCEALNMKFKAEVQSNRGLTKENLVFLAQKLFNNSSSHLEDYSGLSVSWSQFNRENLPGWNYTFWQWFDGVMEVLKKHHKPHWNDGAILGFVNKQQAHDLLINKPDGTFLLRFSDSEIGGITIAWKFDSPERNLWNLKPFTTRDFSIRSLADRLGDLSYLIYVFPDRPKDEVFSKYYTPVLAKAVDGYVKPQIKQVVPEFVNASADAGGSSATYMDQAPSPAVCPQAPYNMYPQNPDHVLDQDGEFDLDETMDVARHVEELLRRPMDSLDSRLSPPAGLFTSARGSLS
# These are yes or no findings as the source states them, for the method shown. In cells and extracts the contact can be indirect. Some entries that bind do so weakly or less than the wild type.
# Assays:
# [1] = target: HDAC2 (human (endogenous in NPC-derived cells)) (UniProt Q92769); test: co-IP; endogenous proteins; cells lysed in RIPA buffer, 300 ug protein extract with 1 ug antibody at 4 °C, protein G-agarose overnight, immunoblot
# [2] = target: HDAC1 (human (endogenous in NPC-derived cells)) (UniProt Q13547); test: as above
substance,measurement,setting,value
STAT5A (from UniProt P42229 1-794),binding,[1],binds
same,binding,[2],binds
